Positions count from the first letter of the chain named. Results are given in words; binding and its absence hold for the method and conditions named. Some results given as binding are weak or reduced against the parent protein; the word gives no strength.
B1: anti-c-Met monoclonal antibody 9.1.2 (antibody, V domains shown)
VH: QVQLQESGPGLVKPSQTLSLTCTVSGGSISSGGYYWSWIRQHPGKGLEWIGYIYYSGSTYYNPSLKSRVTISVDTSKNQFSLKLSSVTAADTAVYYCARDGPLGYCSSTSCPVTGEYYYYGMDVWGQGTTVTVSS
VL: EIVLTQSPGTLSLSPGERATLSCRASQSVSNNYLAWYQQKPGQAPRLLIFGASSRATGIPDRFSGSGSGTDFTLTISRLEPEDFAVYYCQQYDISPMYSFGQGTKLEMKR
notes: Human IgG2 kappa; also called hybridoma 9.1.2 (LN 15884); PTA-5027
B2: anti-c-Met monoclonal antibody 8.70.2 (antibody, V domains shown)
VH: QLQLQESGPGLVKPSETLSLTCTVSGGSISSSSYYGGWIRQPPGKGLDWIGSIYYSGNTYYNPSLKSRVTISVDTSKNQFSLKLSSVTAADTAVYYCARHSWDYFDYWDQGTLVTVSS
VL: DIQMTQSPSSVSASVGDRVTITCRASQGISSWLAWYQQKPGKAPKLLIYAASSLQSGVPSRFSGSGSGTDFTLTISSLQSEDFATYYCQQANSFPITFGPGTKVEIKR
notes: Human IgG2 kappa; also called hybridoma 8.70.2 (LN 15885); PTA-5028
B3: anti-c-Met monoclonal antibody 8.90.3 (antibody, V domains shown)
VH: EVQLVESGGGLVQPGGSLRLSCAASGFTFSRYSMNWVRQAPGKGLEWVSYISSRSSTIYYADSVKGRFTMSRDNAKNSLYMQMNSLRDEDTAVYYCGYGDYDYFDYWGQGTLVTVSS
VL: B2 VL with T20I, Q55K, L73V, S80P, A91S, F94L, I96W, P100Q
notes: Human IgG2 kappa

These binders were tested against c-Met expressed on the surface of cynomolgus kidney cells (cynomolgus) (assay: flow cytometry on cynomolgus kidney cells).

binding, binds:
B1
B2
B3

Reference: patent publication US20120321614A1 (Amgen, published 2012)
